Laboratory results taken from PubChem BioAssay AID260 (DTP/NCI, 2004).
The list shows only some results of the screen, not a fair sample: it covers a few groups of compounds. Not every dose and run of a compound is shown. T/C is the treated group as % of the vehicle group. Where survival is the endpoint, this PubChem deposit counts one and a half times the control or more as active, and values a quarter to a half above the control carry no call in these data; other NCI protocols may use other cut-offs. Some T/C values are marked as having no survivor count here; that says nothing about deaths at the dose. Schedule codes are those of the source, read here as Q, the interval in days (D) or hours (H), X, the number of doses.

System: CD2F1 mice, intracerebral L1210 leukemia, survival T/C
Test: NCI In Vivo Anticancer Drug Screen. Data for tumor model L1210 Leukemia (intracerebral) in CD2F1 (CDF1) mice
Details: T/C endpoint: median survival time, schedule: Q01DX005 (ip), vehicle: saline with Tween-80, higher T/C = longer survival
Method: The antitumor activity of compounds was measured in mice bearing transplantable tumors. Survival or tumor size were measured and the results are expressed as the measurement made in the treated group (T) divided by the measurement made in the vehicle treated control group (C). The tumor model used in this assay is L1210 Leukemia (intracerebral) in CD2F1 (CDF1) mice

## Cc1cc2nc(CN(CCCl)CCCl)[nH]c2cc1C
dose: 1.0 mg/kg/injection
  T/C: 97 % of control [survivor count not shown]
dose: 2.0 mg/kg/injection
  T/C: 110 % of control [survivor count not shown]
dose: 4.0 mg/kg/injection
  T/C: 110 % of control [survivor count not shown]
dose: 8.0 mg/kg/injection
  T/C: 117 % of control [survivor count not shown]
dose: 16.0 mg/kg/injection
  T/C: 92 % of control [survivor count not shown]
